# Results reported in publication doi:10.1101/2023.08.16.553498.
# Sequences of proteins named here, by UniProt entry; tags and fusion partners are left off. A change or cut given only in a name is not applied to a line headed by its entry.
# UniProt F4I7L1: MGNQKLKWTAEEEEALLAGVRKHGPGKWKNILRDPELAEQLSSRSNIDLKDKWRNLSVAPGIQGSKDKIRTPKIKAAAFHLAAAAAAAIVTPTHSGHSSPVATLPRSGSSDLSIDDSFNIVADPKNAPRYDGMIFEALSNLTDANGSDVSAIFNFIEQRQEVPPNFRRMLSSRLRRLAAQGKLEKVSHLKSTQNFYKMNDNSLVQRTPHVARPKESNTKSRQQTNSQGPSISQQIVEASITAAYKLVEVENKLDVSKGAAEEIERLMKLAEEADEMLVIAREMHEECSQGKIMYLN
# UniProt F4IEY4: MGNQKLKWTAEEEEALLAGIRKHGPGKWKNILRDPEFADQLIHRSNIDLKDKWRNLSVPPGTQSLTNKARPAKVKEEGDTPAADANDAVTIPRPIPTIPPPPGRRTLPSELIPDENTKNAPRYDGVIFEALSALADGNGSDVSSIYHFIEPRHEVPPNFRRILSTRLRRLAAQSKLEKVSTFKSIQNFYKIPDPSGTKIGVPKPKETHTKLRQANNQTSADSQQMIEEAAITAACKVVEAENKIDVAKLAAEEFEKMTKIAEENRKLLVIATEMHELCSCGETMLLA
# Results are given in words; binding and its absence hold for the method and conditions named. Binding calls can cover weak binding; strength is not graded here. For some of these results: Tags and fused reporters may be left off the sequences shown. For some of these results: Binding seen in cells or lysates may run through a third protein.
# How the values were obtained:
# [1] = biological target: T1, TELOMERE REPEAT BINDING protein 2 (TRB2), yeast two-hybrid fusion (Arabidopsis) (UniProt Q9FJW5); assay: two-hybrid
# T1 sequence: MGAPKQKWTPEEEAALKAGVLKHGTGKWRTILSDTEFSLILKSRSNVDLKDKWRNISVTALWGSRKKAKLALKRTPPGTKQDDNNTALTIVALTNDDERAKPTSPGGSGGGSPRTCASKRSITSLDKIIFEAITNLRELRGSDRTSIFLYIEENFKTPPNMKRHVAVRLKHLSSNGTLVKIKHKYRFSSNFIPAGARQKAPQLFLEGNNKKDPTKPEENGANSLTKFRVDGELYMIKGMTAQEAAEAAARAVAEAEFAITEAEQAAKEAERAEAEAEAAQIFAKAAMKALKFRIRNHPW
# [2] = biological target: T2, TELOMERE REPEAT BINDING protein 3 (TRB3), yeast two-hybrid fusion (Arabidopsis) (UniProt Q9M2X3); assay: two-hybrid
# T2 sequence: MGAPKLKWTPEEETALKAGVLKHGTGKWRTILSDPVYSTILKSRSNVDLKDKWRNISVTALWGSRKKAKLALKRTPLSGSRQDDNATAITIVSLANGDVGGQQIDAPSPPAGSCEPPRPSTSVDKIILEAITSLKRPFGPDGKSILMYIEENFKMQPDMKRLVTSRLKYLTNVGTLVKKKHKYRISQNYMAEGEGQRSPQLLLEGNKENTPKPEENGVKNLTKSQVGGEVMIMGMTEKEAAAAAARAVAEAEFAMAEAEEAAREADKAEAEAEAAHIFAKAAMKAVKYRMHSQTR
# [3] = biological target: T3, TELOMERE REPEAT BINDING protein 3 (TRB3), BiFC fusion (Arabidopsis) (UniProt Q9M2X3); assay: split reporter
# T3 sequence: T2 sequence
# [4] = biological target: T4, TELOMERE REPEAT BINDING protein 2 (TRB2), BiFC fusion (Arabidopsis) (UniProt Q9FJW5); assay: split reporter
# T4 sequence: T1 sequence
# [5] = biological target: T5, TELOMERE REPEAT BINDING protein 1 (TRB1), BiFC fusion (Arabidopsis) (UniProt Q8VWK4); assay: split reporter
# T5 sequence: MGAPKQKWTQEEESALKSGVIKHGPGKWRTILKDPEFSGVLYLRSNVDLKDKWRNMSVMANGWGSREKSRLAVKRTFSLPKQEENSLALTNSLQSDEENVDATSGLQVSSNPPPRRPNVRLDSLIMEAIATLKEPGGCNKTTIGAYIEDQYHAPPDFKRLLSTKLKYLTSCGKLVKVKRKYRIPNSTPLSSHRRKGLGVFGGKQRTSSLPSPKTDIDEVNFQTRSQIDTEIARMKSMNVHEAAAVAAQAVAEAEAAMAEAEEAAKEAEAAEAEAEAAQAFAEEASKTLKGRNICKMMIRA
# [6] = biological target: TELOMERE REPEAT BINDING protein 4 (TRB4), BiFC fusion (Arabidopsis) (UniProt F4I7L1); assay: split reporter
# [7] = biological target: TELOMERE REPEAT BINDING protein 4 (TRB4), yeast two-hybrid fusion (Arabidopsis) (UniProt F4I7L1); assay: two-hybrid
Sequence,binding [1],binding [2],binding [3],binding [4],binding [5],binding [6],binding [7]
"TELOMERE REPEAT BINDING protein 4 (TRB4), yeast two-hybrid fusion (from UniProt F4I7L1)",binds,binds,,,,,
"TELOMERE REPEAT BINDING protein 4 (TRB4), BiFC fusion (from UniProt F4I7L1)",,,binds,binds,binds,,
"TELOMERE REPEAT BINDING protein 5 (TRB5), BiFC fusion (from UniProt F4IEY4)",,,binds,binds,binds,binds,
"TELOMERE REPEAT BINDING protein 5 (TRB5), yeast two-hybrid fusion (from UniProt F4IEY4)",,,,,,,binds
